Measurements reported in PubChem BioAssay AID1224826 (NIAID, 2016).
This is an unselected part of about 17,000 reagents tested. Of all reagents, about 1,110 (6.6%) were called active. 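Active means lowered or raised reporter signal; replicate intensities are raw and not normalised per plate.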 Not all columns of the deposit are shown.

Purpose: 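Knock-downs that raise or lower Tnf reporter signal after endotoxin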 (primary screen)
Cell system: RAW264.7 G9 macrophages from mouse bearing reporters for p65 (GFP) and the Tnf promoter (mCherry)
Reagent: siRNA pool against mouse genes, 100 nM
Timing: 16 h of LPS stimulation, after 2 days of siRNA transfection
Treatment: bacterial lipopolysaccharide (Salmonella minnesota R595), 10 ng/ml
Read-out: 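Nuclear mCherry signal of the Tnf promoter reporter measured by imaging after background removal, scaled to each plate median and turned into robust z-scores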
Reading the numbers: Tnf reporter robust z-score: higher = stronger Tnf promoter reporter signal after LPS
Call rule: 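a well counts as active at a score of -1.3 or below (Tlr4 knock-down control median) or above 3 (raised signal); controls and wells holding fewer than 50 cells are excluded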
Meaning of the calls: active = Tnf reporter clearly lowered or raised; inactive = no clear change in Tnf reporter

gene | Tnf reporter robust z-score | fewer than 50 cells in well | Outcome
Phc2 (polyhomeotic 2) | 0.32 | enough cells in well | inactive
Cnot3 (CCR4-NOT transcription complex, subunit 3) | -0.25 | enough cells in well | inactive
Sugp1 (SURP and G patch domain containing 1) | -0.13 | enough cells in well | inactive
Kir3dl1 | -0.77 | enough cells in well | inactive
Cd200r2 (Cd200 receptor 2) | -0.07 | enough cells in well | inactive
Mrpl17 (mitochondrial ribosomal protein L17) | 0.74 | enough cells in well | inactive
Spn (sialophorin) | -0.06 | enough cells in well | inactive
Hoxd9 (homeobox D9) | 0.47 | enough cells in well | inactive
Cntf (ciliary neurotrophic factor) | -0.9 | enough cells in well | inactive
Slco1c1 | – | fewer than 50 cells per well; well left out of calls | inactive
Pcdhb11 (protocadherin beta 11) | – | fewer than 50 cells per well; well left out of calls | inactive
Mcrip2 (MAPK regulated corepressor interacting protein 2) | – | fewer than 50 cells per well; well left out of calls | inactive
Clcn1 (chloride channel, voltage-sensitive 1) | -0.05 | enough cells in well | inactive
Mbnl1 (muscleblind like splicing regulator 1) | -0.34 | enough cells in well | inactive
Slc36a3 | – | fewer than 50 cells per well; well left out of calls | inactive
Ybx2 (Y box protein 2) | 1.42 | enough cells in well | inactive
Mycbp (MYC binding protein) | -0.31 | enough cells in well | inactive
Trim25 (tripartite motif-containing 25) | 2.66 | enough cells in well | inactive
Csf2rb2 | -0.16 | enough cells in well | inactive
1700123O20Rik (RIKEN cDNA 1700123O20 gene) | -0.16 | enough cells in well | inactive
Tagap (T cell activation Rho GTPase activating protein) | – | fewer than 50 cells per well; well left out of calls | inactive
Drd3 (dopamine receptor D3) | -0.83 | enough cells in well | inactive
Ccdc60 (coiled-coil domain containing 60) | 0.82 | enough cells in well | inactive
Rgs9bp (regulator of G-protein signalling 9 binding protein) | 0.83 | enough cells in well | inactive
H2-Eb1 (histocompatibility 2, class II antigen E beta) | -0.28 | enough cells in well | inactive
Met (met proto-oncogene, receptor tyrosine kinase) | 2.63 | enough cells in well | inactive
Bap1 (Brca1 associated protein 1) | -0.58 | enough cells in well | inactive
Ndufab1 (NADH:ubiquinone oxidoreductase subunit AB1) | -1.12 | enough cells in well | inactive
Arhgef10l (Rho guanine nucleotide exchange factor 10-like) | 0.39 | enough cells in well | inactive
Spata31d1d (spermatogenesis associated 31 subfamily D, member 1D) | – | fewer than 50 cells per well; well left out of calls | inactive
Katnal2 (katanin p60 subunit A-like 2) | -1.13 | enough cells in well | inactive
Olfm5 (olfactomedin 5) | -0.89 | enough cells in well | inactive
Mettl21a (methyltransferase 21A, HSPA lysine) | – | fewer than 50 cells per well; well left out of calls | inactive
Selenov (selenoprotein V) | 1.5 | enough cells in well | inactive
Socs1 (suppressor of cytokine signaling 1) | 0.48 | enough cells in well | inactive
Ddx56 (DEAD box helicase 56) | -0.88 | enough cells in well | inactive
Igfbp6 (insulin-like growth factor binding protein 6) | 0.19 | enough cells in well | inactive
Rps26 (ribosomal protein S26) | -0.27 | enough cells in well | inactive
Ckap2l (cytoskeleton associated protein 2-like) | – | fewer than 50 cells per well; well left out of calls | inactive
Fam180a (family with sequence similarity 180, member A) | – | fewer than 50 cells per well; well left out of calls | inactive

5 entries from above, set out differently.
{"gene":"Spn (sialophorin)","Tnf reporter robust z-score":-0.06,"fewer than 50 cells in well":"enough cells in well","Outcome":"inactive"}
{"gene":"Hoxd9 (homeobox D9)","Tnf reporter robust z-score":0.47,"fewer than 50 cells in well":"enough cells in well","Outcome":"inactive"}
{"gene":"Cntf (ciliary neurotrophic factor)","Tnf reporter robust z-score":-0.9,"fewer than 50 cells in well":"enough cells in well","Outcome":"inactive"}
{"gene":"Slco1c1","fewer than 50 cells in well":"fewer than 50 cells per well; well left out of calls","Outcome":"inactive"}
{"gene":"Pcdhb11 (protocadherin beta 11)","fewer than 50 cells in well":"fewer than 50 cells per well; well left out of calls","Outcome":"inactive"}
